This passage reports binding results from article PMC6549159.

Chains of the proteins cited; added tags and fusions are not shown. Lines headed by an entry give the natural chain unless they say otherwise; changes in a name come on top. Residues count along the entry.
UniProt O35129, residues 89-299: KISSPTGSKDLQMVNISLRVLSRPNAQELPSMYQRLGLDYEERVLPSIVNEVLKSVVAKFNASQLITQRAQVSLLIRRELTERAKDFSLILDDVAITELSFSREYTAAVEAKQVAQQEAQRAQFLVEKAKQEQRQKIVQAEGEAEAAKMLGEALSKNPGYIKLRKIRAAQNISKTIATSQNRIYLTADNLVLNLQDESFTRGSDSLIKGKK
UniProt O08808: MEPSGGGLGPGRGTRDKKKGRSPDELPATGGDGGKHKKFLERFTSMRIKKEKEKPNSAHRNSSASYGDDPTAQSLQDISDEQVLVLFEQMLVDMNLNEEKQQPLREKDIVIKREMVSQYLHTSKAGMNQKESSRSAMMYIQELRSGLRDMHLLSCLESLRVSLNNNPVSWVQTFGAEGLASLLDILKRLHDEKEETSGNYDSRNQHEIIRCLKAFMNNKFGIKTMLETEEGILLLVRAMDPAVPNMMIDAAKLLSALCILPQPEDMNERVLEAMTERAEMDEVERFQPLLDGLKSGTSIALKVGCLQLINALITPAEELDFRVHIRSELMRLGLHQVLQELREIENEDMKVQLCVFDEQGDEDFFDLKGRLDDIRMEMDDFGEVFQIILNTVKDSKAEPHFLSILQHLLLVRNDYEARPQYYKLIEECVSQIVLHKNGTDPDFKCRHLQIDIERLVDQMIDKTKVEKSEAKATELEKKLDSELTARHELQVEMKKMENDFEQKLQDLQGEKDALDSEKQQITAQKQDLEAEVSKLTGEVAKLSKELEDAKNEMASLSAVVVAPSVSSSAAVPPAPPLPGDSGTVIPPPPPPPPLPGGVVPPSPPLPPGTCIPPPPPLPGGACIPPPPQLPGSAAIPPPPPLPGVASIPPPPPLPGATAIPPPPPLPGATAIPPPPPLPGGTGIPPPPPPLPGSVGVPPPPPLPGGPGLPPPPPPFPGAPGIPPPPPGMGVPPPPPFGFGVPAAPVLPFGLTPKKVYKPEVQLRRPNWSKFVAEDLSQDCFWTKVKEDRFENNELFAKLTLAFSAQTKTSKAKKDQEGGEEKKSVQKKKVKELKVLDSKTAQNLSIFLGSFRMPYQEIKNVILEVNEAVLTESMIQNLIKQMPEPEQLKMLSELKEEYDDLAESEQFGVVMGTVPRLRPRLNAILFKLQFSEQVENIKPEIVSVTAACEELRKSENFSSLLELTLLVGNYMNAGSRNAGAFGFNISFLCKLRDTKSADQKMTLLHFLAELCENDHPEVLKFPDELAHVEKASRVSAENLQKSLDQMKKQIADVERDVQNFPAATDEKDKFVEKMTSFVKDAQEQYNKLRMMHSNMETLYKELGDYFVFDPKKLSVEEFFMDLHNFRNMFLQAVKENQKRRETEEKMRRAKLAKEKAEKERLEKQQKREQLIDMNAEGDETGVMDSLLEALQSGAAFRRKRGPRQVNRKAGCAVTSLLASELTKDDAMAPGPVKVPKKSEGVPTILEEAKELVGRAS

The assay deals with flag-tagged Phb2-Y2H (aa 89-299) (mouse) (UniProt O35129). Description: co-IP; HEK293T co-transfected with flag-tagged Phb2 construct and GFP-tagged mDia1 construct; IP with anti-flag antibody, blot with anti-GFP.

These are yes or no findings as the source states them, for the method shown. Binding seen in cells or lysates may run through a third protein. A result given as binding can be weak or reduced; the word gives no strength.

With “GFP-tagged mDia1ΔN3(HindIII) (from UniProt O08808) (domain or fragment)”, the binding entry was “binds”.
